Article PMC6214133

Chains of the proteins cited; added tags and fusions are not shown. Lines headed by an entry give the natural chain unless they say otherwise; changes in a name come on top.
UniProt Q8IZW8: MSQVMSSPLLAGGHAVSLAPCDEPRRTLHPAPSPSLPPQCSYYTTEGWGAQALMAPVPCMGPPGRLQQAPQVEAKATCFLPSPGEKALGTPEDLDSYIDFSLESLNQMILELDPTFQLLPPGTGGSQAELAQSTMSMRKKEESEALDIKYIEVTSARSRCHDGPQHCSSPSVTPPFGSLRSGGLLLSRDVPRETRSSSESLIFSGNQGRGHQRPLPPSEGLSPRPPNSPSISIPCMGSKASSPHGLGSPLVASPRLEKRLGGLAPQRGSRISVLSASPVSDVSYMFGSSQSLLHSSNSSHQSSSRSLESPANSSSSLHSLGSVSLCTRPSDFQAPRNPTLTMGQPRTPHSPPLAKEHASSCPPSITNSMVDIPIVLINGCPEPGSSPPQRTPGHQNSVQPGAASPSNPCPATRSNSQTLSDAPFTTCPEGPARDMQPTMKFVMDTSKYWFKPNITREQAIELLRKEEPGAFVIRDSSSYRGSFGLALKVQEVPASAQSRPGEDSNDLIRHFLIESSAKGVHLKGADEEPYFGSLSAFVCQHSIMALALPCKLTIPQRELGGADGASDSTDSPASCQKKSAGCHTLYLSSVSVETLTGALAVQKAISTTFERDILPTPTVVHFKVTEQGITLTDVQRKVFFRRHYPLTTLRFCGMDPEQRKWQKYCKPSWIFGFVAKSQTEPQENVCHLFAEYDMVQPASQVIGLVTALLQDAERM
UniProt P05556: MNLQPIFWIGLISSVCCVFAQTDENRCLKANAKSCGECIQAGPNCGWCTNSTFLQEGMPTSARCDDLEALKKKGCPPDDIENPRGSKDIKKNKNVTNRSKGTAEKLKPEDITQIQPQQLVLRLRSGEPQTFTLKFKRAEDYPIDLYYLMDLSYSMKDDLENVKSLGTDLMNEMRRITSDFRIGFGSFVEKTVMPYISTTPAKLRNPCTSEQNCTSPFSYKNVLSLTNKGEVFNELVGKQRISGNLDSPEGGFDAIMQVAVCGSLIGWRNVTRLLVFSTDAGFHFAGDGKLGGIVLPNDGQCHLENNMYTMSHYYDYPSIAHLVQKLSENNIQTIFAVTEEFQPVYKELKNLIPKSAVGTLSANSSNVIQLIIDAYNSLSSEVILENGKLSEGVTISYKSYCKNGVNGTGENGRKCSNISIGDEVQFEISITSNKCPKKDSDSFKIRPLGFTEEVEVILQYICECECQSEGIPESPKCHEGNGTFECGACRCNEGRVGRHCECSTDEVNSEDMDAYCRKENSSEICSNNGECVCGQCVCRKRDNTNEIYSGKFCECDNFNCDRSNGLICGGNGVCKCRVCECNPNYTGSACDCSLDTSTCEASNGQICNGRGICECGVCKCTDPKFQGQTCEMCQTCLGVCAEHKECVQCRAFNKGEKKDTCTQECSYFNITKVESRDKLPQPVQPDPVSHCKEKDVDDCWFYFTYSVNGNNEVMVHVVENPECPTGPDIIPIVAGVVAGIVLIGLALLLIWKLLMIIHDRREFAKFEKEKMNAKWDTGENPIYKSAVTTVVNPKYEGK

Target: C-terminal tensin-like protein (CTEN) (human (endogenous in RWPE-1)) (UniProt Q8IZW8)
Assay: co-IP; RWPE-1 whole cell lysate (500 μg); precipitated with 2 μg anti-CTEN antibody or nonspecific rabbit IgG, 4 °C for 4 h, then protein A-Sepharose for 1 h; buffer 0.1% Triton X-100, 25 mM Tris-HCl pH 8.0, 50 mM NaCl, 0.2 mM EDTA; immunoblot with anti-integrin β1 and anti-CTEN

- binding: binds
Substance: integrin β1 (from UniProt P05556 21-798) (receptor)

These are yes or no findings as the source states them, for the method shown. In cells and extracts the contact can be indirect. Binding calls can cover weak binding; strength is not graded here.
